Source: PubChem BioAssay AID200 (DTP/NCI, 2004)
The list shows only some results of the screen, not a fair sample: it gathers tests that were run many times, whatever their T/C, doses with no T/C, and many T/C values between a quarter and a half above the control. Further doses and runs are listed elsewhere. T/C is the treated group as % of the vehicle group. Some entries give survivors of the animals treated and no T/C: the source files T/C as zero there, which appears to mark a toxic dose or a test without result, not a measured value. Some survivor counts are full or nearly so, which does not show that the dose was tolerated: survival well below the control is almost never listed, so the zero probably covers shortened survival too. Counts of survivors are from the toxicity check (mostly the fifth day) where no day follows; animals may have died later. Schedule codes are those of the source, read here as Q, the interval in days (D) or hours (H), X, the number of doses. Some doses were run more than once; their values stand side by side, smallest first. Where survival is the endpoint, the PubChem record calls one and a half times the control and up active, and a quarter to a half above the control has no call in these data; cut-offs in other NCI protocols can differ. Some T/C values carry the count of animals alive at the toxicity check (mostly the fifth day); without a count, all were alive then. Signs of the kind (2×) give the number of equal values in this list.

Tested on: B6C3F1 mice, B16 melanoma ip, median survival T/C
Assay: NCI In Vivo Anticancer Drug Screen. Data for tumor model B16 Melanoma (intraperitoneal) in B6C3F1 mice
Conditions: T/C endpoint: median survival time, higher T/C = longer survival
Method in brief: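 Antitumor effect was judged in mice with transplanted tumors by dividing the treated group's survival measure by that of vehicle controls.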

[1] = dose: 200.0 mg/kg/injection, schedule: Q01DX009 (ip), vehicle: saline
[2] = dose: 0.5 mg/kg/injection, schedule: Q01DX009 (ip), vehicle: saline
[3] = dose: 1.0 mg/kg/injection, schedule: Q01DX009 (ip), vehicle: saline
[4] = dose: 2.0 mg/kg/injection, schedule: Q01DX009 (ip), vehicle: saline
[5] = dose: 4.0 mg/kg/injection, schedule: Q01DX009 (ip), vehicle: saline
[6] = dose: 100.0 mg/kg/injection, schedule: Q01DX009 (ip), vehicle: saline with Tween-80
[7] = dose: 400.0 mg/kg/injection, schedule: Q01DX009 (ip), vehicle: saline with Tween-80
[8] = dose: 25.0 mg/kg/injection, schedule: Q01DX009 (ip), vehicle: saline with Tween-80
[9] = dose: 50.0 mg/kg/injection, schedule: Q01DX009 (ip), vehicle: saline with Tween-80
[10] = dose: 200.0 mg/kg/injection, schedule: Q01DX009 (ip), vehicle: saline with Tween-80
[11] = dose: 100.0 mg/kg/injection, schedule: Q01DX009 (ip), vehicle: Klucel (hydroxypropylcellulose) (HPC)
[12] = dose: 400.0 mg/kg/injection, schedule: Q01DX009 (ip), vehicle: Klucel (hydroxypropylcellulose) (HPC)

SMILES: C=C1C(O)C2(O)OCC34C(CC5C(C)=CC(=O)C(O)C5(C)C23)OC(=O)C(OC(=O)C/C=C(\C)CCCCC)C14 (configuration not stated)
- survivor count (dose: 13.33 mg/kg/injection, schedule: Q01DX009 (ip), vehicle: saline + Tween-80 + alcohol): 6 of 10
- survivor count (dose: 16.0 mg/kg/injection, schedule: Q01DX009 (ip), vehicle: saline + alcohol): 4 of 10
- survivor count (dose: 22.22 mg/kg/injection, schedule: Q01DX009 (ip), vehicle: saline + Tween-80 + alcohol): 1 of 10
- survivor count (dose: 32.0 mg/kg/injection, schedule: Q01DX009 (ip), vehicle: saline + alcohol): 1 of 10
- survivor count (dose: 64.0 mg/kg/injection, schedule: Q01DX009 (ip), vehicle: saline + alcohol): 0 of 10

SMILES: Cc1c(N)nc([C@H](CC(N)=O)NC[C@H](N)C(N)=O)nc1C(=O)N[C@H](C(=O)N[C@H](C)[C@@H](O)CC(=O)N[C@H](C(=O)NC(O[C@@H]1O[C@@H](C)[C@@H](N)[C@@H](O)[C@H]1O)C(O)c1nc(-c2nc(C(=O)NCCCCN)cs2)cs1)[C@@H](C)O)[C@@H](O[C@@H]1O[C@@H](CO)[C@@H](O)[C@H](O)[C@@H]1O[C@H]1O[C@H](CO)[C@@H](O)[C@H](OC(N)=O)[C@@H]1O)c1c[nH]cn1 (some centres not stated)
- T/C (dose: 0.8 mg/kg/injection, schedule: Q01DX009 (ip), vehicle: saline): 137 % of control
- T/C (dose: 1.6 mg/kg/injection, schedule: Q01DX009 (ip), vehicle: saline): 144 % of control
- T/C (dose: 3.2 mg/kg/injection, schedule: Q01DX009 (ip), vehicle: saline): 138 % of control

SMILES: C[n+]1c(-c2cccc(OCCOCCOc3cccc(-c4c5cc(N)ccc5c5ccc(N)cc5[n+]4C)c3)c2)c2cc(N)ccc2c2ccc(N)cc21
- T/C (dose: 2.0 mg/kg/injection, schedule: Q01DX009 (ip), vehicle: distilled water + Tween-80): 138 % of control
- survivor count (dose: 4.0 mg/kg/injection, schedule: Q01DX009 (ip), vehicle: distilled water + Tween-80): 10 of 10

SMILES: C[N+](C)(C)c1ncnc2nc[nH]c12
- survivor count [1]: 7 of 10
- survivor count (dose: 400.0 mg/kg/injection, schedule: Q01DX009 (ip), vehicle: saline): 0 of 10

SMILES: O=C(O)CSC(CC(=O)O)C(=O)O (configuration not stated)
- survivor count [1]: 10 of 10

SMILES: Nc1ncn(C2CC(O)C(CO)O2)c(=O)n1 (configuration not stated)
- survivor count (dose: 0.5 mg/kg/injection, schedule: Q01DX009 (ip), vehicle: Klucel (hydroxypropylcellulose) (HPC)): 10 of 10
- survivor count [2]: 10 of 10
- survivor count (dose: 1.0 mg/kg/injection, schedule: Q01DX009 (ip), vehicle: Klucel (hydroxypropylcellulose) (HPC)): 10 of 10
- survivor count [3]: 10 of 10
- survivor count (dose: 2.0 mg/kg/injection, schedule: Q01DX009 (ip), vehicle: Klucel (hydroxypropylcellulose) (HPC)): 7 of 10
- survivor count [4]: 10 of 10
- survivor count (dose: 4.0 mg/kg/injection, schedule: Q01DX009 (ip), vehicle: Klucel (hydroxypropylcellulose) (HPC)): 7 of 10
- survivor count [5]: 8 of 10
- survivor count (dose: 8.0 mg/kg/injection, schedule: Q01DX009 (ip), vehicle: Klucel (hydroxypropylcellulose) (HPC)): 9 of 10
- survivor count (dose: 8.0 mg/kg/injection, schedule: Q01DX009 (ip), vehicle: saline): 9 of 10
- survivor count (dose: 500.0 micrograms/kg/injection, schedule: Q01DX009 (ip), vehicle: Klucel (hydroxypropylcellulose) (HPC)): 8 of 10

SMILES: CCOc1ncc([N+](=O)[O-])c(OCC)n1
- survivor count [6]: 10 of 10
- survivor count [7]: 5 of 10 and 8 of 10

SMILES: NC(=O)c1cc(Cl)nc2nc(Cl)nc(N)c12
- survivor count [8]: 10 of 10
- survivor count [9]: 10 of 10
- survivor count [6]: 10 of 10
- survivor count [10]: 9 of 9
- survivor count [7]: 10 of 10

SMILES: C1CC[N-]CC1.[Cl][Pt+2][Cl].[NH-]C1CC1
- T/C (dose: 3.12 mg/kg/injection, schedule: Q01DX009 (ip), vehicle: saline with Tween-80): 134 % of control
- T/C (dose: 6.25 mg/kg/injection, schedule: Q01DX009 (ip), vehicle: saline with Tween-80): 140 % of control
- T/C (dose: 12.5 mg/kg/injection, schedule: Q01DX009 (ip), vehicle: water): 128 % of control
- survivor count [8]: 10 of 10
- T/C (dose: 25.0 mg/kg/injection, schedule: Q01DX009 (ip), vehicle: water): 139 % of control
- survivor count (dose: 50.0 mg/kg/injection, schedule: Q01DX009 (ip), vehicle: water): 4 of 10

SMILES: CN(C)CCNc1ccc([N+](=O)[O-])c2sc3ccccc3c(=O)c12
- T/C [8]: 133 % of control
- T/C [9]: 140 and 148 % of control

SMILES: CCOc1ccccc1C(=O)Nc1ccc(Br)cc1
- T/C [11]: 133 % of control
- T/C [12]: 128 % of control

SMILES: O=C([O][Bi]([c]1ccccc1)[c]1ccccc1)c1ccccc1
- survivor count (dose: 50.0 mg/kg/injection, schedule: Q01DX009 (ip), vehicle: Klucel (hydroxypropylcellulose) (HPC)): 5 of 10
- survivor count [11]: 0 of 10

SMILES: CCOc1ccc(C(C)c2cc3c(cc2OC)OCO3)cc1 (configuration not stated)
- T/C (dose: 100.0 mg/kg/injection, schedule: Q01DX009 (ip), vehicle: distilled water + Tween-80): 129 % of control
- survivor count (dose: 200.0 mg/kg/injection, schedule: Q01DX009 (ip), vehicle: distilled water + Tween-80): 8 of 10
- survivor count (dose: 400.0 mg/kg/injection, schedule: Q01DX009 (ip), vehicle: distilled water + Tween-80): 3 of 10

SMILES: O=C1N[C@@H]([C@H]2CC[C@H](Cl)CN2)C(=O)N[C@H]1[C@H]1CC[C@H](Cl)CN1
- T/C [2]: 129 % of control
- T/C [3]: 128 % of control
- T/C (dose: 2.0 mg/kg/injection, schedule: Q01DX005 (ip), vehicle: saline): 146 % of control
- T/C [4]: 141 % of control
- survivor count [5]: 10 of 10
- survivor count (dose: 8.0 mg/kg/injection, schedule: Q01DX005 (oral), vehicle: saline): 10 of 10
- survivor count (dose: 8.0 mg/kg/injection, schedule: Q04DX003 (ip), vehicle: saline): 10 of 10

SMILES: CC(C)(C)OC(=O)NC(Cc1ccc(O)cc1)C(=O)ON1C(=O)CCC1=O (configuration not stated)
- survivor count [12]: 9 of 10

SMILES: CN(C)c1nc(N(C)C)nc(N(C)C)n1
- T/C [8]: 96 (2×), 97, 99, 101, 102, 115 % of control
- T/C [9]: 100, 101, 102 [9 of 10 alive], 104 (2×), 108, 111 % of control
- T/C [6]: 91 [9 of 10 alive], 101, 103 [9 of 10 alive], 104, 105, 108 [9 of 10 alive], 125 % of control
- T/C [10]: 86 % of control [9 of 10 alive]
- survivor count [10]: 8 of 10, 9 of 10, 10 of 10
- survivor count [7]: 1 of 10, 2 of 10, 3 of 10, 4 of 10, 7 of 10

SMILES: C=C1COC(O)(C2OCOC(C3CC(=O)NC(=O)C3)C2O)C1C (configuration not stated)
- T/C (dose: 16.0 micrograms/kg/injection, schedule: Q01DX009 (ip), vehicle: water): 125 % of control
- survivor count (dose: 32.0 micrograms/kg/injection, schedule: Q01DX009 (ip), vehicle: water): 9 of 10
- survivor count (dose: 64.0 micrograms/kg/injection, schedule: Q01DX009 (ip), vehicle: water): 0 of 10 and 9 of 9
- survivor count (dose: 128.0 micrograms/kg/injection, schedule: Q01DX009 (ip), vehicle: water): 0 of 10

SMILES: CCOC(=O)C1(c2ccccc2)C(=O)Oc2ccccc21 (configuration not stated)
- survivor count [7]: 10 of 10

SMILES: S=c1[nH]cc2cnccn12
- survivor count [7]: 7 of 10

SMILES: COC12C(COC(N)=O)C3=C(C(=O)C(C)=C(N)C3=O)N1CC1C2N1C (configuration not stated)
- T/C [4]: 129 % of control
- survivor count (dose: 16.0 mg/kg/injection, schedule: Q01DX009 (ip), vehicle: saline): 10 of 10

SMILES: CN(C)P(=O)(Oc1ccccc1)N(C)C
- survivor count [7]: 8 of 10 and 9 of 10

SMILES: NS(=O)(=O)c1cc2c(cc1Cl)NC=NS2(=O)=O
- survivor count (dose: 600.0 mg/kg/injection, schedule: Q01DX009 (ip), vehicle: Klucel (hydroxypropylcellulose) (HPC)): 10 of 10

SMILES: CO[C@@]12[C@@H]3N[C@@H]3CN1C1=C(C(=O)C(NCC3CCCO3)=C(C)C1=O)[C@@H]2COC(N)=O (some centres not stated)
- T/C (dose: 1.5 mg/kg/injection, schedule: Q04DX003 (ip), vehicle: distilled water + Tween-80): 146 % of control
- survivor count (dose: 48.0 mg/kg/injection, schedule: Q04DX003 (ip), vehicle: distilled water + Tween-80): 8 of 10
